Data reported in the supplement of paper PMC7666118.
The list shows a part of the results.

The chains behind the UniProt entries cited, without tags or fusion partners. Where a name states a change or a piece, a line headed by the entry shows the natural chain unless it says otherwise.
UniProt O94953: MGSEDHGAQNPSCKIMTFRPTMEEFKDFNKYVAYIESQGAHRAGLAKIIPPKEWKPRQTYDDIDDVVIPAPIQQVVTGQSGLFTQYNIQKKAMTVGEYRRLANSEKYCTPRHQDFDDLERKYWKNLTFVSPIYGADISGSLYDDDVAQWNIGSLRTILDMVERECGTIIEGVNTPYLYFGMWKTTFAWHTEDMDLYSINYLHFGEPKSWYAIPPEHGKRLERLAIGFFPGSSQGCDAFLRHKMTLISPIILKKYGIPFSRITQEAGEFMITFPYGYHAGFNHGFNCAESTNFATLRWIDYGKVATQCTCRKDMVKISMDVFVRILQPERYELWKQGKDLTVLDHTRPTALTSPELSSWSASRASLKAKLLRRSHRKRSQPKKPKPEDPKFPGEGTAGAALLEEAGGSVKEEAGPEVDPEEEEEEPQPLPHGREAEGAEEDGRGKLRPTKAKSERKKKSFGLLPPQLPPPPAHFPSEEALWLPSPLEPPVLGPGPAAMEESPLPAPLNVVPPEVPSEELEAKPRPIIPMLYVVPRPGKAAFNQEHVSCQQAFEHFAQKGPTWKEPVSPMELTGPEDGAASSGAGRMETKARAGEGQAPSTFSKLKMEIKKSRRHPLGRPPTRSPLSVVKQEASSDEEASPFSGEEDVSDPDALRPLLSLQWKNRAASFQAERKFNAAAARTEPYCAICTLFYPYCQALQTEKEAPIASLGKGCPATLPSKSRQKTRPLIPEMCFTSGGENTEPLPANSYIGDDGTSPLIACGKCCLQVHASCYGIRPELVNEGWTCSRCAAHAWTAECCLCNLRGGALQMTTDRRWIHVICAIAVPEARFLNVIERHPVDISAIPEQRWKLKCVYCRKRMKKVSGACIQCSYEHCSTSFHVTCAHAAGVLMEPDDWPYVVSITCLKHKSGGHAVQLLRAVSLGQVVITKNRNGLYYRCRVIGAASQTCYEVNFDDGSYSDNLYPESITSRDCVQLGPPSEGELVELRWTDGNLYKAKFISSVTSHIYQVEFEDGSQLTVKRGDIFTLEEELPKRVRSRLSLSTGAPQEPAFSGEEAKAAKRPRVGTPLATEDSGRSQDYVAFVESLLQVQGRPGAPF
UniProt Q9HCE5: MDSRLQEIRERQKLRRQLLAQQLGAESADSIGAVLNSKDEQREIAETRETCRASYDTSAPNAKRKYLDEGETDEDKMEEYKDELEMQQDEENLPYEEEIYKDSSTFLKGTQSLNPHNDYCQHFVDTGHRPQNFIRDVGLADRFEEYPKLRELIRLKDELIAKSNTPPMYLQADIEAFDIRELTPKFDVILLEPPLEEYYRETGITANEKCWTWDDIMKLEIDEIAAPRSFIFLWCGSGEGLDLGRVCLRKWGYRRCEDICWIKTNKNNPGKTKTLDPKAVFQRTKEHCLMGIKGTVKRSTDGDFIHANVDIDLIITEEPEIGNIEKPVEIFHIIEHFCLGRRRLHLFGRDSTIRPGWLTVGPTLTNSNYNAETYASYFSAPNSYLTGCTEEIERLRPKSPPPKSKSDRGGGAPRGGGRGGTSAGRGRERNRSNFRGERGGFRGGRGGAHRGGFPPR
UniProt P51553: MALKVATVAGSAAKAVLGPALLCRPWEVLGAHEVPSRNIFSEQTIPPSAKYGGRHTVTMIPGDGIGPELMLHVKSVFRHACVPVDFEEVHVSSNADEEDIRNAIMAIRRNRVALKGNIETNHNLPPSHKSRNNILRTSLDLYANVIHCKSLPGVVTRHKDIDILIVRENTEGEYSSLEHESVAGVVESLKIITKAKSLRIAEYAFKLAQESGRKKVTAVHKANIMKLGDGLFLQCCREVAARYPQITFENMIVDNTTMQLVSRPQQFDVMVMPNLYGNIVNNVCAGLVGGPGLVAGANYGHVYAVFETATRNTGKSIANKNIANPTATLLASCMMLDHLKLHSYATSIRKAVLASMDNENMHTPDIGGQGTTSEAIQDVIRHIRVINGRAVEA
UniProt P32942: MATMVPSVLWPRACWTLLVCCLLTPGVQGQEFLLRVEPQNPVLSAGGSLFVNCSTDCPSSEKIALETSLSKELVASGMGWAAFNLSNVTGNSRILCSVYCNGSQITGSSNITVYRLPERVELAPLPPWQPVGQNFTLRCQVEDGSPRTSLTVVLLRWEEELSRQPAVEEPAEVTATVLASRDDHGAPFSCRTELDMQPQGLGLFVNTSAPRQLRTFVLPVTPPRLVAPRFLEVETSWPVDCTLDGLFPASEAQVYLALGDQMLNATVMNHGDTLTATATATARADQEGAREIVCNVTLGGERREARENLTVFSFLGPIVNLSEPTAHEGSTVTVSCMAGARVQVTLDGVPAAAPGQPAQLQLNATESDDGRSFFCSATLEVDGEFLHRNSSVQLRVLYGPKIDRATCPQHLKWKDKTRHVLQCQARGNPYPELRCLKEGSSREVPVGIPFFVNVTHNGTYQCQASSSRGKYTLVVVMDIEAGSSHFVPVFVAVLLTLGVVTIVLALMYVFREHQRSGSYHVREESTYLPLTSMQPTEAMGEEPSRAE
UniProt P17275: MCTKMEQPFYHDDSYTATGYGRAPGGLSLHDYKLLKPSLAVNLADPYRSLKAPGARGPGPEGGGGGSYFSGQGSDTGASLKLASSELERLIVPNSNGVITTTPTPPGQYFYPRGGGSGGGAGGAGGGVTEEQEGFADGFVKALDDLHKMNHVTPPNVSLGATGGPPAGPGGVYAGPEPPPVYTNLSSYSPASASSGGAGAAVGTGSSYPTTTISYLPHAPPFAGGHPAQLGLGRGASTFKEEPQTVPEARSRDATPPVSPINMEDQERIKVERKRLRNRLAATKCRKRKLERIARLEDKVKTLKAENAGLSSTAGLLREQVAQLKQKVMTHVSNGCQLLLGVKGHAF
UniProt Q96S16: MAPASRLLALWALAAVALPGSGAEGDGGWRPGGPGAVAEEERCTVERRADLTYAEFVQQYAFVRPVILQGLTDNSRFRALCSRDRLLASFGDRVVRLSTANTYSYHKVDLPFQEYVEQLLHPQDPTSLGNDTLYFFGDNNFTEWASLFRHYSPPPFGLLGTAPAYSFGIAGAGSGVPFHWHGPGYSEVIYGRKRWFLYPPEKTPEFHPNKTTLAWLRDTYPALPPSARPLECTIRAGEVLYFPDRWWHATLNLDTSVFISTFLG
UniProt Q9C0F1: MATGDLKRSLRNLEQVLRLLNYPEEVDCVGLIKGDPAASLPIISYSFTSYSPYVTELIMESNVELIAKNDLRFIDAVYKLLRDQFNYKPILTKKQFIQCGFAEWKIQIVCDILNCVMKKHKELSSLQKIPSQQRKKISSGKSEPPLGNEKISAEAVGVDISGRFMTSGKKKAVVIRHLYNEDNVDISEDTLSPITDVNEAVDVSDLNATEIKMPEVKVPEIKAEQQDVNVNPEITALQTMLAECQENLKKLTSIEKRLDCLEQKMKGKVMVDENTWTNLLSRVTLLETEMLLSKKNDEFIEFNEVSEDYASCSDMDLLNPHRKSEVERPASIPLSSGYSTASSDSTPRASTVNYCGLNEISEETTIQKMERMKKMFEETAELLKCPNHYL
UniProt Q14974, whole entry: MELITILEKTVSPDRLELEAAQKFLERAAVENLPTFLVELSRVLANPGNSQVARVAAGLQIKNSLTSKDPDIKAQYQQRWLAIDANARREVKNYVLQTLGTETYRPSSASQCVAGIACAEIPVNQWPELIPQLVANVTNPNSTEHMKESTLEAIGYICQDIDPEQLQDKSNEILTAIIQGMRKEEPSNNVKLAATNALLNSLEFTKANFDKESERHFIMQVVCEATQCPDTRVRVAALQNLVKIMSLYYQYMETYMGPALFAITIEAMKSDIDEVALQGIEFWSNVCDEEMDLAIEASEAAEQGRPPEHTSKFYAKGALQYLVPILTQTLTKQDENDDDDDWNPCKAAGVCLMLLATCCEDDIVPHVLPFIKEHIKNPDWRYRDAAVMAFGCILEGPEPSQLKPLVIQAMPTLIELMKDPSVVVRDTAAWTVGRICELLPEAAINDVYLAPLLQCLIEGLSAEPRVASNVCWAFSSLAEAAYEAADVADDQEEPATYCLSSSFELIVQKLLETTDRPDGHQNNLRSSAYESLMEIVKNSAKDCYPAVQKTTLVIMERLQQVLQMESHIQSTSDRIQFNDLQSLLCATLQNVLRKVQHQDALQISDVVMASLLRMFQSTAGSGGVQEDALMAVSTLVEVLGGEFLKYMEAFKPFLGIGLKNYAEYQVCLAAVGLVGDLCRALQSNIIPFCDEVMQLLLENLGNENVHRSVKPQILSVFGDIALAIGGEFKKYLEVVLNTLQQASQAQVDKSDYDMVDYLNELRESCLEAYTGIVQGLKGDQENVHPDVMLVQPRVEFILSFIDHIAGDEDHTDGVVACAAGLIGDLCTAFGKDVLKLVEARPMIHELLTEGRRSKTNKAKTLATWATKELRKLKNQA
UniProt Q5TH69: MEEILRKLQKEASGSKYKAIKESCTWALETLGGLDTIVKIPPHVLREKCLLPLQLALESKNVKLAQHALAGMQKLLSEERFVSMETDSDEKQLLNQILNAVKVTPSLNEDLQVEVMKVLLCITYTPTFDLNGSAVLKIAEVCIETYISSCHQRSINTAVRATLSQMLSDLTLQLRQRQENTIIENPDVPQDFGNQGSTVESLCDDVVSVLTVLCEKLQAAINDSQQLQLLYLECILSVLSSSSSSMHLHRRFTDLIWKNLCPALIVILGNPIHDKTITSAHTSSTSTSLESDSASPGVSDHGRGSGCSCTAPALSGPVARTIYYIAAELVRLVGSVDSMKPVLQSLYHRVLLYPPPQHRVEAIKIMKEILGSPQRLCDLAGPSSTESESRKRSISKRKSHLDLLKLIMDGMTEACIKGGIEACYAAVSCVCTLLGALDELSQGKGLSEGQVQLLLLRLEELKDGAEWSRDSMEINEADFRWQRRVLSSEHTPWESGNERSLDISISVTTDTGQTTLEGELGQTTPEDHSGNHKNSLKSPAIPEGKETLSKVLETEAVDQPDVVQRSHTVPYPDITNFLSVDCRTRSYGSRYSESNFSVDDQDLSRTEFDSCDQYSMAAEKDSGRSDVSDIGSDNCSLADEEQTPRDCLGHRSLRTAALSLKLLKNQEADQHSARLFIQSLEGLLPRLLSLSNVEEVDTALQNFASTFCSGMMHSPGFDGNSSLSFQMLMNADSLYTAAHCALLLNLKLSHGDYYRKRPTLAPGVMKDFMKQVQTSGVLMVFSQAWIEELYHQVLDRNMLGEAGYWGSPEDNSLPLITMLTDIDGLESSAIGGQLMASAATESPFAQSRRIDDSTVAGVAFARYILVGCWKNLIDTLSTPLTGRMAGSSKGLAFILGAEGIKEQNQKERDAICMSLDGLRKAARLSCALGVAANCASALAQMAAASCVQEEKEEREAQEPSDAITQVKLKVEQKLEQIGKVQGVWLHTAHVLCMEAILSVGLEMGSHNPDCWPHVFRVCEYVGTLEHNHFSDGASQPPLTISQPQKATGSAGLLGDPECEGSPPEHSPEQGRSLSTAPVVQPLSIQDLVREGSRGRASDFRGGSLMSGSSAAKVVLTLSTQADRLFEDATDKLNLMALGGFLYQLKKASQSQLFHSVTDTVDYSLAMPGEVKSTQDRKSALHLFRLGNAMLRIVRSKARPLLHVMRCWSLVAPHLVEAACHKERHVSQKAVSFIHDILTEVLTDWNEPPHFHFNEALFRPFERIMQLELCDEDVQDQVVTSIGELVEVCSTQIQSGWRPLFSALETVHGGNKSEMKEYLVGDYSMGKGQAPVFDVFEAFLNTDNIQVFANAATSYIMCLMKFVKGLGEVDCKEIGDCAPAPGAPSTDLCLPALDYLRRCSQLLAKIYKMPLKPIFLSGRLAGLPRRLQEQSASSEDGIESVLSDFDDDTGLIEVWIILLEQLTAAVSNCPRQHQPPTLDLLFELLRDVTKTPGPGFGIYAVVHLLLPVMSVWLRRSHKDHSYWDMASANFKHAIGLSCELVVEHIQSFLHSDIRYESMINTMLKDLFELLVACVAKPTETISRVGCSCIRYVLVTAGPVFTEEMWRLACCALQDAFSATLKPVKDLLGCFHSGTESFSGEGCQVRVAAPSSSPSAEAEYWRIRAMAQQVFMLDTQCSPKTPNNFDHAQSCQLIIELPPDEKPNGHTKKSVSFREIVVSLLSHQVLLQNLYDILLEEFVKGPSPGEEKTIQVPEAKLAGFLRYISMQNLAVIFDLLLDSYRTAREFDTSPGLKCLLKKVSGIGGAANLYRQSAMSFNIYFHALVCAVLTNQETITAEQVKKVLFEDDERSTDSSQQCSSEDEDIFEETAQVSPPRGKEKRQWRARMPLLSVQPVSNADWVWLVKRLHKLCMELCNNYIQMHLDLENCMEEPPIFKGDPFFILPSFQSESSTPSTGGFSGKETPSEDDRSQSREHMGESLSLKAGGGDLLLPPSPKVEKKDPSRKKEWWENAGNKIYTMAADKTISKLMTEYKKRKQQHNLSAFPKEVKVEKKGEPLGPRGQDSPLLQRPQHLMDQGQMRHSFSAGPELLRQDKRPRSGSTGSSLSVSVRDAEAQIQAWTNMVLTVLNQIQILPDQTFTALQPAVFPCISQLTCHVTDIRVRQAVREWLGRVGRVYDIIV

Compound: COc1ccc(Cn2ccc3cc(C)c(C(=O)NO)cc32)cc1
Experiment: dose-dependent thermal stabilisation call (2D-TPP, DLPTP, 10% FDR) (binary (1 = stabilised)); higher = stabilised by the compound
Details: system: HL-60 intact cells; concentration range 0.04-10 µM
Experimental: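 2D thermal proteome profiling in intact HL-60 cells treated with BRD-3811 (0, 0.04, 0.29, 2, 10 uM) for 90 min at 37 C, then heated 3 min at one of 12 temperatures (42-63.9 C). Soluble protein was quantified by TMT10 MS. The value is the DLPTP call of the paper: dose-dependent thermal stabilisation over all temperatures at 10% FDR (F-test of a dose-response against a flat model); one experiment, one call per tested protein.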

Target	dose-dependent thermal stabilisation call
IQCB1 (UniProt Q15051)	inactive: 0
KIAA0427 (UniProt O43310)	inactive: 0
KIDINS220 (UniProt Q9ULH0)	inactive: 0
IFT140 (UniProt Q96RY7)	inactive: 0
JMJD2B (UniProt O94953)	inactive: 0
KIAA1627 (UniProt Q9HCE5)	inactive: 0
KIAA1143 (UniProt Q96AT1)	inactive: 0
ITGB2 (UniProt P05107)	inactive: 0
KCTD10 (UniProt Q9H3F6)	inactive: 0
KIAA0101 (UniProt Q15004)	inactive: 0
ILK (UniProt Q13418)	inactive: 0
KLC2 (UniProt Q9H0B6)	inactive: 0
IDH3G (UniProt P51553)	inactive: 0
ISG20L2 (UniProt Q9H9L3)	inactive: 0
ICAM3 (UniProt P32942)	inactive: 0
JUNB (UniProt P17275)	inactive: 0
IQGAP3 (UniProt Q86VI3)	inactive: 0
IPPK (UniProt Q9H8X2)	inactive: 0

Target	dose-dependent thermal stabilisation call
KIAA0020 (UniProt Q15397)	inactive: 0
IKBKAP (UniProt O95163)	inactive: 0
JMJD8 (UniProt Q96S16)	inactive: 0
KIF13B (UniProt Q9NQT8)	inactive: 0
IRS2 (UniProt Q9Y4H2)	inactive: 0
IMPDH1 (UniProt P20839)	inactive: 0
KIAA1712 (UniProt Q9C0F1)	inactive: 0
KPNB1 (UniProt Q14974)	inactive: 0
KIAA1919 (UniProt Q5TF39)	inactive: 0
IFI16 (UniProt Q16666)	inactive: 0
IMPACT (UniProt Q9P2X3)	inactive: 0
KIAA1432 (UniProt Q4ADV7)	inactive: 0
KDELC1 (UniProt Q6UW63)	inactive: 0
IVD (UniProt P26440)	inactive: 0
KIAA0195 (UniProt Q12767)	inactive: 0
ILF2 (UniProt Q12905)	inactive: 0
ICAM1 (UniProt P05362)	inactive: 0
KIAA1244 (UniProt Q5TH69)	inactive: 0

2 entries from above, comma-delimited.
Target,dose-dependent thermal stabilisation call
IFI16 (UniProt Q16666),inactive: 0
IMPACT (UniProt Q9P2X3),inactive: 0
